These are yes or no findings as the source states them, for the method shown. Binding seen in cells or lysates may run through a third protein. These calls come from enrichment with a bait or labelling near it, and not all partners need be listed.
Target: GST-14-3-3ζ (UniProt P63104)
Assay: affinity purification with mass spectrometry

Chains of the proteins cited; added tags and fusions are not shown.
UniProt P63104: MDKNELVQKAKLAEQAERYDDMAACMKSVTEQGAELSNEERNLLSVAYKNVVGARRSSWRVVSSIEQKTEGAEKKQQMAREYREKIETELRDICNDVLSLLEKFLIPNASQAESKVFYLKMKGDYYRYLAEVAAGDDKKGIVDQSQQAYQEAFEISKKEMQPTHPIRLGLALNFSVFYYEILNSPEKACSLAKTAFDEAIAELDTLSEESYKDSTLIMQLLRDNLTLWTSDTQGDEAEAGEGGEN
UniProt G3XA57: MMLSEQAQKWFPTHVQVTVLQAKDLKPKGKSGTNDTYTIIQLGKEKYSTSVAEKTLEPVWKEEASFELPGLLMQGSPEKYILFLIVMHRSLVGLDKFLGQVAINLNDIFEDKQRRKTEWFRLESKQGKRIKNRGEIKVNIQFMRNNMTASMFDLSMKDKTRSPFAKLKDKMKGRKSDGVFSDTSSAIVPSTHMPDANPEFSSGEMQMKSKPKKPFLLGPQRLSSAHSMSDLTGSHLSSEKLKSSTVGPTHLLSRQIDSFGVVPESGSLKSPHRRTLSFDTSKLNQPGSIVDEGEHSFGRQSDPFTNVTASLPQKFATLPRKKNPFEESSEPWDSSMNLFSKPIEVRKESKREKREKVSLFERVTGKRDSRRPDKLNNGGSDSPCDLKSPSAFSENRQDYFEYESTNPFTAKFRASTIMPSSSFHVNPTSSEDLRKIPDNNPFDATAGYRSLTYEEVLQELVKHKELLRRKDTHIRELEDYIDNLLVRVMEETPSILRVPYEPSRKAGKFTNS
UniProt Q8CH77: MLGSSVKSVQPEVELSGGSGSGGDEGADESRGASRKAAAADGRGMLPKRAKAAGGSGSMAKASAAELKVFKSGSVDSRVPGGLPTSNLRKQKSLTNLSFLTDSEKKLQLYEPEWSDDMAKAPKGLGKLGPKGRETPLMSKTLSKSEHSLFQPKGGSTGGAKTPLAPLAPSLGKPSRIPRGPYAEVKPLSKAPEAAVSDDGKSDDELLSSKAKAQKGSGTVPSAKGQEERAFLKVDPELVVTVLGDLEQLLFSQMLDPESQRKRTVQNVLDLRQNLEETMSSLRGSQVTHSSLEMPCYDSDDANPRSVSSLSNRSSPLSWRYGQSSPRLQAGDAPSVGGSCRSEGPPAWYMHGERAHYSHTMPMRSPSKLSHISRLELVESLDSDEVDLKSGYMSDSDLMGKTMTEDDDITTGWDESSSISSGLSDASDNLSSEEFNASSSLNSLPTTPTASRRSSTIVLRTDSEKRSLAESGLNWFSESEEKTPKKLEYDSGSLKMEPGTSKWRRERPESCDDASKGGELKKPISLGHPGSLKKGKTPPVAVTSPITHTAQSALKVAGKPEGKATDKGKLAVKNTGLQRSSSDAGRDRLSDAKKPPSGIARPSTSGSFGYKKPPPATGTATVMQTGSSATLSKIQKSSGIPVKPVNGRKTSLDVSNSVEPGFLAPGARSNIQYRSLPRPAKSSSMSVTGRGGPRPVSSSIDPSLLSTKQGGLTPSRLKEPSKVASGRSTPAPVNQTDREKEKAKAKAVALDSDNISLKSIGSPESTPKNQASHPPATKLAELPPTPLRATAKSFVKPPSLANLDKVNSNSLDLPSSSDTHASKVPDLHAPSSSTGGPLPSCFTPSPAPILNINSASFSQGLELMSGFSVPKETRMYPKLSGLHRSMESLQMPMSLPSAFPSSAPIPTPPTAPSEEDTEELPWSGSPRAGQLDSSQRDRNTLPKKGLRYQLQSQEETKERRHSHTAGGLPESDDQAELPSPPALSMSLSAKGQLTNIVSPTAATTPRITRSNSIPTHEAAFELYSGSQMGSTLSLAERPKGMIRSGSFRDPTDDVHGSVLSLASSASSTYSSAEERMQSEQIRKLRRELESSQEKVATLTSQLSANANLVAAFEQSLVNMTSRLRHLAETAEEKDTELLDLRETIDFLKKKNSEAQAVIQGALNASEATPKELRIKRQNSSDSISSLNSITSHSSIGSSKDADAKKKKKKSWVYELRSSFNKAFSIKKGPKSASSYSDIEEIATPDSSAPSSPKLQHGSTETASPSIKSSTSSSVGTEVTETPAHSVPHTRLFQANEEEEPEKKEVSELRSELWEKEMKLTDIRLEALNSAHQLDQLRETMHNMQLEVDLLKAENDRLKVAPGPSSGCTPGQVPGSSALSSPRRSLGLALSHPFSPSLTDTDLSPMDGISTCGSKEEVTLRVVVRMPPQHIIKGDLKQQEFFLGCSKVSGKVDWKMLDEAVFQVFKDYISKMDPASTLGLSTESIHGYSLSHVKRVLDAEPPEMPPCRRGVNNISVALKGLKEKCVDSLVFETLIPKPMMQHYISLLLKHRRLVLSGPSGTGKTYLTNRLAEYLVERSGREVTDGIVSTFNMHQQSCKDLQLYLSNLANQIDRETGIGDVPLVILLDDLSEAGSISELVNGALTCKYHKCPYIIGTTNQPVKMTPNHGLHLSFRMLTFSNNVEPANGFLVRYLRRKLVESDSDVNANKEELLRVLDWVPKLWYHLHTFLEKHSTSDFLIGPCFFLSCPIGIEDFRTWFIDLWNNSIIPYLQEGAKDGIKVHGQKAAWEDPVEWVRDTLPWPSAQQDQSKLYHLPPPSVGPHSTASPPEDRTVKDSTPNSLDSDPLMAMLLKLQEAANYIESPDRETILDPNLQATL
UniProt Q03141: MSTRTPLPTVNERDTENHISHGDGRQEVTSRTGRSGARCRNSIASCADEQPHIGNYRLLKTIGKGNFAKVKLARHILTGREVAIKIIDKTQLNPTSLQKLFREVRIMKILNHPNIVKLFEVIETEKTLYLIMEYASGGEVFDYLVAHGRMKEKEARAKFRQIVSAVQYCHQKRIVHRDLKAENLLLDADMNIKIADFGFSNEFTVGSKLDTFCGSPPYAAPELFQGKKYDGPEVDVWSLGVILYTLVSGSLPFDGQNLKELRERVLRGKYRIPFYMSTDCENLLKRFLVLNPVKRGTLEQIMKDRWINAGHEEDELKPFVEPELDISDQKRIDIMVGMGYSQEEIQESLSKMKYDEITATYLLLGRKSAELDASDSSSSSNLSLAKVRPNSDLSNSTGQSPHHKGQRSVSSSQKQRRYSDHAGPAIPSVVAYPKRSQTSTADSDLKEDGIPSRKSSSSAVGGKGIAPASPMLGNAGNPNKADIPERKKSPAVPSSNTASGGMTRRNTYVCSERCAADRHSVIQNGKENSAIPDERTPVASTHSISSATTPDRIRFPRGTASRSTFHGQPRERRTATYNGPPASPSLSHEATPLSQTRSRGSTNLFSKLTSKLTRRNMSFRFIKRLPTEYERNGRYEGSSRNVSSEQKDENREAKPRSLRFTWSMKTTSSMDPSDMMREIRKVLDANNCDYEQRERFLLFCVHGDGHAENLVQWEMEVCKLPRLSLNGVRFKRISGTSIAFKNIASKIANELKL
UniProt P20357: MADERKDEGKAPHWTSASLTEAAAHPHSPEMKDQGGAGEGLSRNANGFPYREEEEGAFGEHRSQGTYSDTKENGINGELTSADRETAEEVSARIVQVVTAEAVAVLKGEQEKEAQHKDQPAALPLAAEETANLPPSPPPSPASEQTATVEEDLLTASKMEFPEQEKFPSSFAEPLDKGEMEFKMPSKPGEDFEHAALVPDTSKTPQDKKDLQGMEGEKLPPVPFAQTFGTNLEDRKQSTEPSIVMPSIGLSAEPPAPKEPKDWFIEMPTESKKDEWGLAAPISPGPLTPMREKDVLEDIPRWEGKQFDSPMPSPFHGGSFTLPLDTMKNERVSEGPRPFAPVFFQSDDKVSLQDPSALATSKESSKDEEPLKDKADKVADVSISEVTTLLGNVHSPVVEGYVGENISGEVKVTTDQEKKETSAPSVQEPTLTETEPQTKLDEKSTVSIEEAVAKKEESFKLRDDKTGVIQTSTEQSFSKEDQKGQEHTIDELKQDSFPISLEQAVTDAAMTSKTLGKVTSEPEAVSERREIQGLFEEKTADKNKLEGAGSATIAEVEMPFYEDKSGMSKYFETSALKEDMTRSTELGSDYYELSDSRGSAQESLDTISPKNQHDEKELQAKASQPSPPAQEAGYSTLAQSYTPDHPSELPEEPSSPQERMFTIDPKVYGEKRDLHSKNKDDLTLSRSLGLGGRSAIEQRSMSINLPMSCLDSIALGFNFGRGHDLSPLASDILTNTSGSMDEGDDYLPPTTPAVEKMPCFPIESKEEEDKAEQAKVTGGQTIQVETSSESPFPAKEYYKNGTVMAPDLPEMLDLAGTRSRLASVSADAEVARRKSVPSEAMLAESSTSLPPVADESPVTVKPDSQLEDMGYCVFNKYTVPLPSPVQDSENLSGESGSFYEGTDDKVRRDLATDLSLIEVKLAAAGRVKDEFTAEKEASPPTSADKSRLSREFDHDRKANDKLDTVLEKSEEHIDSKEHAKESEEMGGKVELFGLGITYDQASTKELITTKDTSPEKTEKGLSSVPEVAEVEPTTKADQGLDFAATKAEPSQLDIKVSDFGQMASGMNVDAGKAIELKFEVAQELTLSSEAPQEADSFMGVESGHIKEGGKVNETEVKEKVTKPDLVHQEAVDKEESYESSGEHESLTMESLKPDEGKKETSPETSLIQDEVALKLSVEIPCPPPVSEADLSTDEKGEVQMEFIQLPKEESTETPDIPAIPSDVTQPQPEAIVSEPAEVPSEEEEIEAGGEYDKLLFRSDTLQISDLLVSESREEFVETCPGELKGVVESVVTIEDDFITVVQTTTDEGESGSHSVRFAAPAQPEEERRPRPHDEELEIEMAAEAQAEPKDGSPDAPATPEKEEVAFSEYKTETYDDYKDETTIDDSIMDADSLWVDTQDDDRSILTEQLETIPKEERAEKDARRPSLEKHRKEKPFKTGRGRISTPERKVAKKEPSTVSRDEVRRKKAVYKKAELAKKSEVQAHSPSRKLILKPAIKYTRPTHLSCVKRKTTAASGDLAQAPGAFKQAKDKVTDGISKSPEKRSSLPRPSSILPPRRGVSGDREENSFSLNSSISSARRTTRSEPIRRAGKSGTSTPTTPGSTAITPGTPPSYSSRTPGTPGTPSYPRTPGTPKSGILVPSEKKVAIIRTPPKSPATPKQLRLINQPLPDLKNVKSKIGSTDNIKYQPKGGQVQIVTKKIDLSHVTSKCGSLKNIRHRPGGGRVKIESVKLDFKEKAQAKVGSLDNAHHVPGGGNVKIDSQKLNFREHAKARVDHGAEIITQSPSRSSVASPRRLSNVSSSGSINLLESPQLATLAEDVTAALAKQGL
UniProt Q9Z351: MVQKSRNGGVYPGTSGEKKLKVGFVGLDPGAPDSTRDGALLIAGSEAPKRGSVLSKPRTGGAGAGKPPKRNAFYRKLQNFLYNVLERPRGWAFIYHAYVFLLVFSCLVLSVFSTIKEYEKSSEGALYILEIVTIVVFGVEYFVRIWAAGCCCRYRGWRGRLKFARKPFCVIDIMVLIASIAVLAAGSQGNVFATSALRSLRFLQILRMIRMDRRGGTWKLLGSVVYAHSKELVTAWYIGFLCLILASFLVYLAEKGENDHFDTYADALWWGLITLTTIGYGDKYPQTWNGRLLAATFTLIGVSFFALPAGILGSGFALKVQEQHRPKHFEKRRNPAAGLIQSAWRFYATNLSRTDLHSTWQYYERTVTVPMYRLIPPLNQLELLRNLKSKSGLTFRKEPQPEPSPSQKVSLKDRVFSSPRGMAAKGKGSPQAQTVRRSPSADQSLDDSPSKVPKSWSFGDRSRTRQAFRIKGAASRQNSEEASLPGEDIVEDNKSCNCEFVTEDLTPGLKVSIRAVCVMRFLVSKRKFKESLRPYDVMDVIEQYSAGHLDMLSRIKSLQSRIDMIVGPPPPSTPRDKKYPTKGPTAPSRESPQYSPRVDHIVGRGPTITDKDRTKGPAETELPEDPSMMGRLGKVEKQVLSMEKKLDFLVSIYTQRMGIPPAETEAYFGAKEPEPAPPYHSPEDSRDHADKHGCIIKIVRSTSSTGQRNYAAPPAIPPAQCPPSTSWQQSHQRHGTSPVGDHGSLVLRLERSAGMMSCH
UniProt Q9DBS5: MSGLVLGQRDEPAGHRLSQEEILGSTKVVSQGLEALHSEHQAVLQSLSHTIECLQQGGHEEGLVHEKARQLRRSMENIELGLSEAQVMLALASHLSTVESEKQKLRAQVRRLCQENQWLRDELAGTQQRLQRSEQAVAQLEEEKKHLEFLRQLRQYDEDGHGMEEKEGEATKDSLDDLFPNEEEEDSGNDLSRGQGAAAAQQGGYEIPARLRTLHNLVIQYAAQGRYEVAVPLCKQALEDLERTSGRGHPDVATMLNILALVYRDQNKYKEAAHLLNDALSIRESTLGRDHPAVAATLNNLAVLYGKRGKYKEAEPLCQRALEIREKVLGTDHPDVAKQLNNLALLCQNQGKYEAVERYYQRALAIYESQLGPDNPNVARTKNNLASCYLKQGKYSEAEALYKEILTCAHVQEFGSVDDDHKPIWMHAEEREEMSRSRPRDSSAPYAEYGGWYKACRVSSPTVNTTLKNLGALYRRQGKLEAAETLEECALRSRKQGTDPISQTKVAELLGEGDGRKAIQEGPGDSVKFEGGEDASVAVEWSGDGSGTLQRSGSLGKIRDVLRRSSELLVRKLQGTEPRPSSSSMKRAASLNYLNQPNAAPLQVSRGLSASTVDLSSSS

| Substance | binding |
| --- | --- |
| Cdk17 (from UniProt Q8K0D0 1-523) | binds |
| Syngap1 (from UniProt F6SEU4 1-1340) | binds |
| Hcn4 (from UniProt O70507 1-1201) | binds |
| Abl1 (from UniProt P00520 1-1123) | binds |
| Cacna1b (from UniProt O55017 1-2327) | binds |
| Rab11fip2 (from UniProt G3XA57 1-512) | binds |
| Abl2 (from UniProt Q4JIM5 1-1182) | binds |
| Agap2 (from UniProt Q3UHD9 1-1186) | binds |
| Kcnh7 (from UniProt Q9ER47 1-1195) | binds |
| Bsn (from UniProt O88737 1-3942) | binds |
| Iqsec1 (from UniProt Q8R0S2 1-961) | binds |
| Map4 (from UniProt P27546 1-1125) | binds |
| Rims2 (from UniProt Q9EQZ7 1-1530) | binds |
| Kif21b (from UniProt Q9QXL1 1-1668) | binds |
| Tsc2 (from UniProt Q61037 1-1814) | binds |
| Mink1 (from UniProt Q9JM52 1-1308) | binds |
| Klc3 (from UniProt Q91W40 1-508) | binds |
| Srgap2 (from UniProt Q91Z67 1-1071) | binds |
| Nav1 (from UniProt Q8CH77 1-1875) | binds |
| Mast3 (from UniProt Q3U214 1-1321) | binds |
| Mark3 (from UniProt Q03141 1-753) | binds |

| Substance | binding |
| --- | --- |
| Syn1 (from UniProt O88935 1-706) | binds |
| Tiam1 (from UniProt Q60610 1-1591) | binds |
| Klc2 (from UniProt O88448 1-599) | binds |
| Map2 (from UniProt P20357 1-1828) | binds |
| Lrrc7 (from UniProt Q80TE7 1-1490) | binds |
| Als2 (from UniProt Q920R0 1-1651) | binds |
| Cdk14 (from UniProt O35495 1-469) | binds |
| Nf1 (from UniProt Q04690 1-2841) | binds |
| Cdk16 (from UniProt Q04735 1-496) | binds |
| Aak1 (from UniProt Q3UHJ0 1-959) | binds |
| Nyap1 (from UniProt Q6PFX7 1-833) | binds |
| Kcnq2 (from UniProt Q9Z351 1-759) | binds |
| Mark1 (from UniProt Q8VHJ5 1-795) | binds |
| Syn3 (from UniProt Q8JZP2 1-579) | binds |
| Tiam2 (from UniProt Q6ZPF3 1-1715) | binds |
| Syt7 (from UniProt Q9R0N7 1-403) | binds |
| Kif1a (from UniProt P33173 1-1695) | binds |
| Pclo (from UniProt Q9QYX7 1-5068) | binds |
| Cacna1e (from UniProt Q61290 1-2272) | binds |
| Klc4 (from UniProt Q9DBS5 1-619) | binds |
